Drawing on paper PMC7819943, “Rice protein-binding microarrays: a tool to detect cis-acting elements near promoter regions in rice”, this text covers binding signal for 42 sequences.

Chains of the proteins cited; added tags and fusions are not shown.
UniProt Q0JBA9, entry or part of it: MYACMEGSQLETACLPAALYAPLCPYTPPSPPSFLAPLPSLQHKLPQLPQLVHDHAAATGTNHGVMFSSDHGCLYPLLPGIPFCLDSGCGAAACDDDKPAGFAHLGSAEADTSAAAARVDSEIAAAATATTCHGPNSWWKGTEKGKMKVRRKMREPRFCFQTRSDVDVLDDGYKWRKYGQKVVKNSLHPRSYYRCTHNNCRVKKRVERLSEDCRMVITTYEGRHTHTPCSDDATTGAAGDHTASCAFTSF

The other results are listed elsewhere or left out.

The experiment addresses OsWRKY34 (Oryza sativa, UniProt Q0JBA9 1-250). The experiment is described as follows: protein-binding microarray (RPBM); PBS, 2% BSA, 51.3 ng/ul salmon testes DNA, 50 uM zinc acetate, 200 nM TF, 25 C, 1 h; high values mean tight binding. To be noted: protein: recombinant; tags: N-terminal polyhistidine and DsRed monomer fusion (pET32a); label: CyDye5-dUTP incorporated in the synthesized complementary strand; 3' TTTTT single-stranded linker to array surface; dsDNA, one strand shown. An outline of the steps: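 An Axon 4000B scanner gave the binding signal as per-feature fluorescence intensity in arbitrary units. This followed washing of a custom Agilent array that had been incubated for 1 h at 25 °C with 200 nM protein in PBS, 2% BSA, salmon testes DNA and 50 µM zinc acetate. The proteins were transcription factors fused at the N-terminus to polyhistidine and DsRed, expressed in E. coli BL21-CodonPlus and purified on Ni–NTA.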
Consider “TCTAATTCTGTCCACTGATTTTTTTTTTCAGTTTATGTCTCGGAGTCACCTAGTGCAG”, for which the binding signal was 8720 fluorescence intensity (a.u.).
In the case of “CACTTCATCCATCGTTCGCCCGTGTCTATCCGCAGCGAGACGGAGTCACCTAGTGCAG” it was 8550 fluorescence intensity (a.u.); in that of “CCAATCACAATCCTCCACCATTTACTCCTACATACTTTTTCGGAGTCACCTAGTGCAG”, 11600 fluorescence intensity (a.u.).
In the case of “ATTTGCGAGTTCGATCATATTATGGTGTGTTATGTTCCTTCGGAGTCACCTAGTGCAG” it was 13000 fluorescence intensity (a.u.); in that of “GGGCCTATAACTGTAGTTCCATCACGTCTCTCTGTACGTTCGGAGTCACCTAGTGCAG”, 8820 fluorescence intensity (a.u.).
The figure for “TTCGCACTTTGCCGTTTTCCGACCGTTACTGCCATGCTTTCGGAGTCACCTAGTGCAG” is 15800 fluorescence intensity (a.u.); for “CCGTTTCCTTTGCTGGTTGTGTTTTGTGCTTGCATTCATGCGGAGTCACCTAGTGCAG” it is 12400 fluorescence intensity (a.u.).
As for “GTCCCATTTTAACTGCAGCCATGGTTTTCCGCATCCAACTCGGAGTCACCTAGTGCAG”, the binding signal was 10400 fluorescence intensity (a.u.).
In the case of “ATATTGGTGGGCGCGGATTTTAATAGGTGGGCGGTGGATTCGGAGTCACCTAGTGCAG” it was 8430 fluorescence intensity (a.u.); in that of “TTCGTGCACGCGGTCCATGCACCAGCCACCATTCCCTTCGCGGAGTCACCTAGTGCAG”, 8350 fluorescence intensity (a.u.).
In the case of “ATTCTCCCTCGCTTCTGATCTGTTTCTCAGTTGGGTATCTCGGAGTCACCTAGTGCAG” it was 10000 fluorescence intensity (a.u.).
On to “AATTTTGAAATTATTATTTATTTTGTTTGTGACTTGCTTTCGGAGTCACCTAGTGCAG”, for which the binding signal is 10100 fluorescence intensity (a.u.).
The figure for “CCCCGGACTCCACTCTACACCCTTCACGCGCGCGAGCACGCGGAGTCACCTAGTGCAG” is 9640 fluorescence intensity (a.u.); for “ACTTGCTCTTTTATTTTTCTCCATTGTCAGCATGGTCGGTCGGAGTCACCTAGTGCAG” it is 13600 fluorescence intensity (a.u.); for “CCATCCAGGGTTGTAATCTTATAATTTTTTTCCTGCTCTACGGAGTCACCTAGTGCAG” it is 9430 fluorescence intensity (a.u.).
In the case of “ATGCTACTATACTATTGATCCTTGTTATGTGACTTATGTCCGGAGTCACCTAGTGCAG” it was 9240 fluorescence intensity (a.u.); in that of “ATAATGGGAAATGTGGGGTAGGATTGGTATTGGAAAATGACGGAGTCACCTAGTGCAG”, 11000 fluorescence intensity (a.u.); in that of “AATAGCCATTTTTTTTCTCCATTTTCTTGCACACTGAACTCGGAGTCACCTAGTGCAG”, 11400 fluorescence intensity (a.u.).
The figure for “TTTGGCGCTACCTATTTAAACCGCTAGCTGCCACTCTCTCCGGAGTCACCTAGTGCAG” is 8490 fluorescence intensity (a.u.); for “TCTTCCATCGCCACGGCCCACACTCTGCCGAGCGCGTCTCCGGAGTCACCTAGTGCAG” it is 10500 fluorescence intensity (a.u.); for “CTTTTCTTTCTTTCTTTTCGCACTTACAAAACAGCACTGTCGGAGTCACCTAGTGCAG” it is 10200 fluorescence intensity (a.u.).
“AGGAGGGGTACAGTGGACAGCTCAAACCGAGAGGGGAGGGCGGAGTCACCTAGTGCAG”: the binding signal is 8970 fluorescence intensity (a.u.).
In the case of “TTGCTTTGAGACAACGGGCCACCAGGGGAGGGGACAGCACCGGAGTCACCTAGTGCAG” it was 9500 fluorescence intensity (a.u.).
In the case of “ATAATGTTGTTCTTCGCATCGGTTGTAATTTGGTAATGCCCGGAGTCACCTAGTGCAG” it was 11200 fluorescence intensity (a.u.).
In the case of “CTGGATAATTCATCCGACCTTTATTTTTTCATGAAATCTGCGGAGTCACCTAGTGCAG” it was 8340 fluorescence intensity (a.u.); in that of “ACTTCATTTAATACGTGCGGTCCTTCCTACCGAGCCATATCGGAGTCACCTAGTGCAG”, 8500 fluorescence intensity (a.u.); in that of “GAAATTTTGACCTTGTTTTACAGATACTCCAGCTCATTCACGGAGTCACCTAGTGCAG”, 8990 fluorescence intensity (a.u.).
As to “GCCCCACCAAACCTACACCAACCTCATATTCCTCTAGCCGCGGAGTCACCTAGTGCAG”, the binding signal was 9350 fluorescence intensity (a.u.).
As for “TACTCCCGCCTCCTCATCCGGTTCCCGCCACTCCTATTTACGGAGTCACCTAGTGCAG”, the binding signal was 12200 fluorescence intensity (a.u.).
In the case of “GCCCTTTCGCATTTTACCTCGGCACACGGTAGACTCTCGACGGAGTCACCTAGTGCAG” it was 8980 fluorescence intensity (a.u.); in that of “TTTCTTCATGCACTGCTCCTACGTGCCGCGATCATTGCTTCGGAGTCACCTAGTGCAG”, 9110 fluorescence intensity (a.u.); in that of “AAGGTGTGTGTCACTGGGGCTTCTGGCTATGTTGCCTCTTCGGAGTCACCTAGTGCAG”, 8620 fluorescence intensity (a.u.).
In the case of “CTCTTCCACGCTTCGGCTTCCATCCAATCATCTGCATCGTCGGAGTCACCTAGTGCAG” it was 8380 fluorescence intensity (a.u.); in that of “TTCCACCTGAGCCTGTCTGTTAAACCTTCCACATCTCCTCCGGAGTCACCTAGTGCAG”, 8560 fluorescence intensity (a.u.); in that of “GTCGCCGTAGCCCACTGCCTCCAACGCTCTCCTCGGCGCCCGGAGTCACCTAGTGCAG”, 9360 fluorescence intensity (a.u.).
As to “TCTCTTCTCTAGTTCTCTTCTTCTTCTTGGCTGCTGTGCTCGGAGTCACCTAGTGCAG”, the binding signal was 9600 fluorescence intensity (a.u.).
The figure for “CACCAACCGTGTTCTACCAGCCTACCGAAACCTTCTCCTCCGGAGTCACCTAGTGCAG” is 8550 fluorescence intensity (a.u.); for “GTGTGGTGCGAGCAGTGATATTTTCTGTGTTGGGTCTGGGCGGAGTCACCTAGTGCAG” it is 8120 fluorescence intensity (a.u.).
In the case of “GGGAGAGGGAGCCCCGCCGCCGCCGTCCTTGCAGCCGCCTCGGAGTCACCTAGTGCAG” it was 8590 fluorescence intensity (a.u.); in that of “TACCTGACCTCGTCCTCGTGTTCACTAATACATGTGATTCCGGAGTCACCTAGTGCAG”, 8960 fluorescence intensity (a.u.); in that of “AACAATACTCTCTGCACTACGACCGTAGTCCTCGTCGTTTCGGAGTCACCTAGTGCAG”, 10300 fluorescence intensity (a.u.).
In the case of “GTCCTTATCTCGGCGTCCGAGCCCACCACCGCACCACCGCCGGAGTCACCTAGTGCAG” it was 10000 fluorescence intensity (a.u.).
